The entries are a selection whose mix differs from that of the whole data set. At the low end of the ranking the order means little.
Assays:
Test in all cases: DAPPL (digital affinity profiling via proximity ligation, sequencing)
Conditions in all cases: 10 mM Tris-HCl pH 7.5, 50 mM NaCl, 1 mM DTT, 4% glycerol, room temperature, 30 min; GST-TFs on glutathione beads, 16-mer random dsDNA library, 0.1% …; high values mean tight binding; double strand, one strand shown; scale: fold enrichment (6-mer frequency, TF over GST control)
ELF3 = biological target: T1, ELF3 (UniProt P78545)
T1 sequence: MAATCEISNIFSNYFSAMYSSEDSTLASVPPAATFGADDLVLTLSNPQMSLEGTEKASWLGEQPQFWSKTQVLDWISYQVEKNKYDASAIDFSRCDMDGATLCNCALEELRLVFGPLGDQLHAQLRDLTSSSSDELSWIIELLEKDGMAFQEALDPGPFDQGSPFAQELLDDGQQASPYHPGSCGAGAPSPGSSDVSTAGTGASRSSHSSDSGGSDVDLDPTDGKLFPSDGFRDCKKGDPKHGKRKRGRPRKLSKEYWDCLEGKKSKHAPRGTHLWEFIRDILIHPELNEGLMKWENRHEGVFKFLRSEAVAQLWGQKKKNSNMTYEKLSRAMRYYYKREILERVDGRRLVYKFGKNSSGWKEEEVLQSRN

The chains behind the UniProt entries cited, without tags or fusion partners. Where a name states a change or a piece, a line headed by the entry shows the natural chain unless it says otherwise.
UniProt Q9Y603: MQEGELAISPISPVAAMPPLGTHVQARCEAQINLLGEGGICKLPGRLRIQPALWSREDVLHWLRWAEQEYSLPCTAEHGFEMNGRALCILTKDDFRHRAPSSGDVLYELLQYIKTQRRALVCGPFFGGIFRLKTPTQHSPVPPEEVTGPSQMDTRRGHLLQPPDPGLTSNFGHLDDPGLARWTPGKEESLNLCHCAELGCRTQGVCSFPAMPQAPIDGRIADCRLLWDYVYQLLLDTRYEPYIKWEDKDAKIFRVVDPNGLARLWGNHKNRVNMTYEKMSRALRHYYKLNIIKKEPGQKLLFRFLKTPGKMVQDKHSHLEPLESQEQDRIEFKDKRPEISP
UniProt P41212: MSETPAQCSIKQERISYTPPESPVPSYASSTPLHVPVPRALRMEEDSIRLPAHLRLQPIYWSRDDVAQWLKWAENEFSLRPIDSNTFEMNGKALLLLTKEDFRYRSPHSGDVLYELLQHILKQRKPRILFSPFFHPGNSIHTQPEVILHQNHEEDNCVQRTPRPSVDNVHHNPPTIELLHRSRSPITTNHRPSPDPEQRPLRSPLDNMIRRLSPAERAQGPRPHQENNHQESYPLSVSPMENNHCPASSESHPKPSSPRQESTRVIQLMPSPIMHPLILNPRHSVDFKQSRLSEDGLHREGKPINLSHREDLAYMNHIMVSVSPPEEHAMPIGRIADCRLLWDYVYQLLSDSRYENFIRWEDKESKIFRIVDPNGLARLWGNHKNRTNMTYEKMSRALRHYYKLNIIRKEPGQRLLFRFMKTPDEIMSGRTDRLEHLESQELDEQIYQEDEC

ETV7 = ETV7 (UniProt Q9Y603)
ETV6 = ETV6 (UniProt P41212)

## TCGTGT
ELF3
  binding signal: 0.746
ETV7
  binding signal: 0.886
ETV6
  binding signal: 0.781

## AAGAGC
ELF3
  binding signal: 0.904
ETV7
  binding signal: 0.848
ETV6
  binding signal: 0.86

## GTGCAG
ELF3
  binding signal: 0.689
ETV7
  binding signal: 0.76
ETV6
  binding signal: 0.695

## TTGAGT
ELF3
  binding signal: 0.682
ETV7
  binding signal: 0.752
ETV6
  binding signal: 0.667

## GAAGGG
ELF3
  binding signal: 0.796
ETV7
  binding signal: 0.845
ETV6
  binding signal: 0.899

## TGAGTA
ELF3
  binding signal: 0.384
ETV7
  binding signal: 0.508
ETV6
  binding signal: 0.445

## GACGCA
ELF3
  binding signal: 0.506
ETV7
  binding signal: 0.494
ETV6
  binding signal: 0.525

## AGCCGT
ELF3
  binding signal: 0.559
ETV7
  binding signal: 0.527
ETV6
  binding signal: 0.485

## ACAGTG
ELF3
  binding signal: 0.541
ETV7
  binding signal: 0.555
ETV6
  binding signal: 0.484

## ATCAGG
ELF3
  binding signal: 0.815
ETV7
  binding signal: 0.878
ETV6
  binding signal: 0.911

## AGACTA
ELF3
  binding signal: 0.765
ETV7
  binding signal: 0.79
ETV6
  binding signal: 0.814

## AGGGCG
ELF3
  binding signal: 0.567
ETV7
  binding signal: 0.626
ETV6
  binding signal: 0.589

## GCCGTA
ELF3
  binding signal: 0.679
ETV7
  binding signal: 0.839
ETV6
  binding signal: 0.845

## AGGGAG
ELF3
  binding signal: 0.346
ETV7
  binding signal: 0.37
ETV6
  binding signal: 0.376

## CCCAGC
ELF3
  binding signal: 0.946
ETV7
  binding signal: 0.85
ETV6
  binding signal: 0.822

## CGAGGC
ELF3
  binding signal: 0.833
ETV7
  binding signal: 0.68
ETV6
  binding signal: 0.639

## ATCGGA
ELF3
  binding signal: 0.395
ETV7
  binding signal: 0.411
ETV6
  binding signal: 0.438

## ACTGAG
ELF3
  binding signal: 0.742
ETV7
  binding signal: 0.797
ETV6
  binding signal: 0.667

## AGAGGT
ELF3
  binding signal: 0.958
ETV7
  binding signal: 0.896
ETV6
  binding signal: 0.772

## CGGGGT
ELF3
  binding signal: 0.562
ETV7
  binding signal: 0.718
ETV6
  binding signal: 0.611

## GTCAAC
ELF3
  binding signal: 0.917
ETV7
  binding signal: 0.848
ETV6
  binding signal: 0.823

## TGTGTG
ELF3
  binding signal: 0.945
ETV7
  binding signal: 0.851
ETV6
  binding signal: 0.749

## CCGTGG
ELF3
  binding signal: 0.462
ETV7
  binding signal: 0.431
ETV6
  binding signal: 0.387

## GACTGT
ELF3
  binding signal: 0.422
ETV7
  binding signal: 0.373
ETV6
  binding signal: 0.432

## GGAGCC
ELF3
  binding signal: 0.371
ETV7
  binding signal: 0.384
ETV6
  binding signal: 0.343

## CGCCGT
ELF3
  binding signal: 0.92
ETV7
  binding signal: 0.842
ETV6
  binding signal: 0.976

## GGTACG
ELF3
  binding signal: 0.927
ETV7
  binding signal: 0.912
ETV6
  binding signal: 0.829

## GGCAGG
ELF3
  binding signal: 0.774
ETV7
  binding signal: 0.622
ETV6
  binding signal: 0.686

## AGTCGC
ELF3
  binding signal: 0.533
ETV7
  binding signal: 0.512
ETV6
  binding signal: 0.506

## AGTGCG
ELF3
  binding signal: 0.877
ETV7
  binding signal: 0.802
ETV6
  binding signal: 0.84

## GAGTTA
ELF3
  binding signal: 0.66
ETV7
  binding signal: 0.655
ETV6
  binding signal: 0.588

## GAGATG
ELF3
  binding signal: 0.706
ETV7
  binding signal: 0.749
ETV6
  binding signal: 0.698

## GCTGAG
ELF3
  binding signal: 0.58
ETV7
  binding signal: 0.711
ETV6
  binding signal: 0.675

## GAGTGG
ELF3
  binding signal: 0.626
ETV7
  binding signal: 0.59
ETV6
  binding signal: 0.605

## AGCGTT
ELF3
  binding signal: 0.859
ETV7
  binding signal: 0.996
ETV6
  binding signal: 0.918

## GTTGGG
ELF3
  binding signal: 0.711
ETV7
  binding signal: 0.748
ETV6
  binding signal: 0.678
